Results are given in words; binding and its absence hold for the method and conditions named. In cells and extracts the contact can be indirect. Some entries that bind do so weakly or less than the wild type.
What follows are substances tested against wild type human SETX-Flag (senataxin) (human) (UniProt Q7Z333) (assay: co-IP; HEK293T cells co-expressing EGFP-FUS or EGFP-LMNA with SETX; NP40 lysis buffer (50 mM Tris pH 8.0, 100 mM NaCl, 1 mM EDTA, 1% NP40, 10% glycerol); 1 mg total protein, IP with 1 ug anti-SETX antibody and pansorbin, 1 h at RT; western blot for WT or MT FUS and LMNA).

By UniProt entry, the sequences of proteins in these tests, tags left out. Where a name states a change or a piece, a line headed by the entry shows the natural chain unless it says otherwise. Chains listed by the source or under a name are the forms on record and can include a tag or linker. Residues count along the entry.
UniProt Q7Z333: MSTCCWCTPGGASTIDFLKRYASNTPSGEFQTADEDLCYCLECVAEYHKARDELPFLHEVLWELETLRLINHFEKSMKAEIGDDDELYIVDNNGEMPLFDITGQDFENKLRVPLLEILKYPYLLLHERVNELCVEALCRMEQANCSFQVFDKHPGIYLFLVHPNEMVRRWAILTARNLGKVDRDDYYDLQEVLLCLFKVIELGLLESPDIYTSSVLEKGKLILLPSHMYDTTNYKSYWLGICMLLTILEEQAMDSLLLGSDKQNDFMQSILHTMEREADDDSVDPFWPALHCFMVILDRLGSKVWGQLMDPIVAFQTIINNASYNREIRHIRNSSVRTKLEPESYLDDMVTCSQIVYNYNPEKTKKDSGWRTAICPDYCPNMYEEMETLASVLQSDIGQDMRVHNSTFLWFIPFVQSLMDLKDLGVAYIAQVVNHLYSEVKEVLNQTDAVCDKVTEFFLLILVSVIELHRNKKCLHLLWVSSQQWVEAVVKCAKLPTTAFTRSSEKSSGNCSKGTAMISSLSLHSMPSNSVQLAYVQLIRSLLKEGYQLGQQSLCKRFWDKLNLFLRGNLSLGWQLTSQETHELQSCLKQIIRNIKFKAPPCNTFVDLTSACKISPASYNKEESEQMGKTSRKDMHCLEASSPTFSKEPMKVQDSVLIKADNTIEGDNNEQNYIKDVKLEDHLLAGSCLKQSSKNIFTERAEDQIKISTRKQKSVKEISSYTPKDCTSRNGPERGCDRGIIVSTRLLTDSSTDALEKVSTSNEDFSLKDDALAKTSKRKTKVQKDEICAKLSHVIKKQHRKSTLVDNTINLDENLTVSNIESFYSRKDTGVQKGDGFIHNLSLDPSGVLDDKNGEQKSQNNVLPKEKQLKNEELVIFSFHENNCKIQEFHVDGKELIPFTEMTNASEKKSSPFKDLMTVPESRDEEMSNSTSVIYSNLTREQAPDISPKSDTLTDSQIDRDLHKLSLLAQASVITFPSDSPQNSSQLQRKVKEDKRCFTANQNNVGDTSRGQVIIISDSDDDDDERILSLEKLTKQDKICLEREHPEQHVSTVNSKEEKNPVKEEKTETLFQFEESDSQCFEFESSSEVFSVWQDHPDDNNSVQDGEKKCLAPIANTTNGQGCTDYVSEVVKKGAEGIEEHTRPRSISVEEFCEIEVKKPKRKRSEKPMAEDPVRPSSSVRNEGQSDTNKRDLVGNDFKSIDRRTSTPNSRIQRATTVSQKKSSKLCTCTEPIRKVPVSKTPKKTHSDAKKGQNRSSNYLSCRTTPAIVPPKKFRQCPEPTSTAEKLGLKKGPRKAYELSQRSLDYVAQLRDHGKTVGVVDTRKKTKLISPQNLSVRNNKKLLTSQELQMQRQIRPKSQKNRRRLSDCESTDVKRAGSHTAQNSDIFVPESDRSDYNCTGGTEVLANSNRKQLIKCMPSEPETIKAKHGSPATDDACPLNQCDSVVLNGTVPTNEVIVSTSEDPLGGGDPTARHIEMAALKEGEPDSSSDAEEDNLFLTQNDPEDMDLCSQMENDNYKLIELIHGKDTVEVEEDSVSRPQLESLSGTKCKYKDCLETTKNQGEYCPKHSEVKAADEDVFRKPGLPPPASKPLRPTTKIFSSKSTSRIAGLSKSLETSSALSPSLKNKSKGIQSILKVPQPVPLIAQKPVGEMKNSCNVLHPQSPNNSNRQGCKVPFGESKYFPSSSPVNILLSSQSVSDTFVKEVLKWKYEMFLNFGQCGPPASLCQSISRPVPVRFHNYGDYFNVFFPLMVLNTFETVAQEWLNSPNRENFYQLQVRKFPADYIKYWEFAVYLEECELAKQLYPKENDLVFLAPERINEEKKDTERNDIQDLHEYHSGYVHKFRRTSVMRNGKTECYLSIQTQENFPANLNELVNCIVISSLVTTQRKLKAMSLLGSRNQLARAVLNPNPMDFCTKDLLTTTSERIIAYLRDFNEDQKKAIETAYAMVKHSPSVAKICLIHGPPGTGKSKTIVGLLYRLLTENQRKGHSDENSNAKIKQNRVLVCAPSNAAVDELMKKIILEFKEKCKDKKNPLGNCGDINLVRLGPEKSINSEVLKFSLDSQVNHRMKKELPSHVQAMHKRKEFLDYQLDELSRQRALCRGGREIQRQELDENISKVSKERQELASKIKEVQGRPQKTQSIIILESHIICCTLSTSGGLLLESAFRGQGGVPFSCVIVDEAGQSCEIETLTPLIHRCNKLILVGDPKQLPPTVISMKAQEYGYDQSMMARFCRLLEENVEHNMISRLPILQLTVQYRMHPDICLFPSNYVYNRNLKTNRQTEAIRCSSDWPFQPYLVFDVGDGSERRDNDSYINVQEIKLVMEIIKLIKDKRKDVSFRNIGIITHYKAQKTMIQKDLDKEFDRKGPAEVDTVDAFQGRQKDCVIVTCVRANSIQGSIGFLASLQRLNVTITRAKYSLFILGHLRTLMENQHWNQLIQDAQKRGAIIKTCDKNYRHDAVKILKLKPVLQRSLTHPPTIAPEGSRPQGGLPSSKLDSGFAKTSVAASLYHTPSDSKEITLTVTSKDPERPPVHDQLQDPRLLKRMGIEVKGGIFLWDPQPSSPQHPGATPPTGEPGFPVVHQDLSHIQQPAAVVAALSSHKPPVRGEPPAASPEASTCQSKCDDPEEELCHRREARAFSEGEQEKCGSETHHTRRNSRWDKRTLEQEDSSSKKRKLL
EGFP-tagged wild type human prelamin A/C (lamin A) (P02545, residues 2-664): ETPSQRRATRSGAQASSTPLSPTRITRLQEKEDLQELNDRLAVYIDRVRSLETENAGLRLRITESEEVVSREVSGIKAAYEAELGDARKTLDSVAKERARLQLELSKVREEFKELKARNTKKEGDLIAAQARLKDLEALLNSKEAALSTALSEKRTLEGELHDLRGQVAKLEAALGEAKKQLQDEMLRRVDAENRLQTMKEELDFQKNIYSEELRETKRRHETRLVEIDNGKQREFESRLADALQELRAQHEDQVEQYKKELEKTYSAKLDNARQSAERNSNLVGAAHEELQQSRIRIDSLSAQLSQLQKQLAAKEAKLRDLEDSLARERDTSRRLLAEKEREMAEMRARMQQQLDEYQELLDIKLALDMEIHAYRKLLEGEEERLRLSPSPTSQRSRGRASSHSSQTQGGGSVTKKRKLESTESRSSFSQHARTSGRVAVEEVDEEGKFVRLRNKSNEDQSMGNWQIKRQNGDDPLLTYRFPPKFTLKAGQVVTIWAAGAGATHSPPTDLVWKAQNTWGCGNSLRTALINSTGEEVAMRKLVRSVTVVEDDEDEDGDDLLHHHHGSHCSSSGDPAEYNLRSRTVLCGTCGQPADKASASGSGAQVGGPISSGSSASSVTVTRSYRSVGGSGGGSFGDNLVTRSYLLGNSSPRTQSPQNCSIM
EGFP-tagged G602S lamin A (pEGFP-G602S-Lamin) (P02545, form named): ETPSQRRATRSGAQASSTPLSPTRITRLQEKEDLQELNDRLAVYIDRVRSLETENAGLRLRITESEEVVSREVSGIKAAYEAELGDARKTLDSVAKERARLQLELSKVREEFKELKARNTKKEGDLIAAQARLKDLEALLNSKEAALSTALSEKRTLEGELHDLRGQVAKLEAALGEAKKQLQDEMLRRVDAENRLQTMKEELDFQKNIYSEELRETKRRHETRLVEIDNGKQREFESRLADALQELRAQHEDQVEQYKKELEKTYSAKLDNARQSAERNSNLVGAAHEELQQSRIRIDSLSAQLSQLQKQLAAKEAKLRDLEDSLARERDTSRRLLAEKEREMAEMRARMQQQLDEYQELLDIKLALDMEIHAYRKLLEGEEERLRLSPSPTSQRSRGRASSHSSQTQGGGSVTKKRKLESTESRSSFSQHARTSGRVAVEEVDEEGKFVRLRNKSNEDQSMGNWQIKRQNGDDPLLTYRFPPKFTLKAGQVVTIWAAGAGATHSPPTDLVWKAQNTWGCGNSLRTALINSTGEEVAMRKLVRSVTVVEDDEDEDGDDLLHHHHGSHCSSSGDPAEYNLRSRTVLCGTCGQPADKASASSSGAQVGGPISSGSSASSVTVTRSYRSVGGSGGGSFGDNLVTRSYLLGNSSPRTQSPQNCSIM
UniProt P35637: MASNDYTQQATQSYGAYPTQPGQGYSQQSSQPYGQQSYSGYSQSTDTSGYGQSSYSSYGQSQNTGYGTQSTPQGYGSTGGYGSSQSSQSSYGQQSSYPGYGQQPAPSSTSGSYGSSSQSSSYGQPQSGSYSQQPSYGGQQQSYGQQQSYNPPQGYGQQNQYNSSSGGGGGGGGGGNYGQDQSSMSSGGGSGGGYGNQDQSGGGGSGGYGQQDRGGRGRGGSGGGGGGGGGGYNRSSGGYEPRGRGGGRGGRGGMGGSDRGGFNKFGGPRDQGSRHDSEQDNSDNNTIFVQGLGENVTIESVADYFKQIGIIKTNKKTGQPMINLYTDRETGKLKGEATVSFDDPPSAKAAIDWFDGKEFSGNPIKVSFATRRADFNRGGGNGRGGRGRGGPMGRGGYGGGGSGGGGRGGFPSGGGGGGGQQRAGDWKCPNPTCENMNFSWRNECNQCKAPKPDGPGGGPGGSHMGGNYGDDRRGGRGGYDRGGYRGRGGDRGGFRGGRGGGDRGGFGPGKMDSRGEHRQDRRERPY
EGFP-tagged FUS p.Gly167_Gly168del (P35637, form named): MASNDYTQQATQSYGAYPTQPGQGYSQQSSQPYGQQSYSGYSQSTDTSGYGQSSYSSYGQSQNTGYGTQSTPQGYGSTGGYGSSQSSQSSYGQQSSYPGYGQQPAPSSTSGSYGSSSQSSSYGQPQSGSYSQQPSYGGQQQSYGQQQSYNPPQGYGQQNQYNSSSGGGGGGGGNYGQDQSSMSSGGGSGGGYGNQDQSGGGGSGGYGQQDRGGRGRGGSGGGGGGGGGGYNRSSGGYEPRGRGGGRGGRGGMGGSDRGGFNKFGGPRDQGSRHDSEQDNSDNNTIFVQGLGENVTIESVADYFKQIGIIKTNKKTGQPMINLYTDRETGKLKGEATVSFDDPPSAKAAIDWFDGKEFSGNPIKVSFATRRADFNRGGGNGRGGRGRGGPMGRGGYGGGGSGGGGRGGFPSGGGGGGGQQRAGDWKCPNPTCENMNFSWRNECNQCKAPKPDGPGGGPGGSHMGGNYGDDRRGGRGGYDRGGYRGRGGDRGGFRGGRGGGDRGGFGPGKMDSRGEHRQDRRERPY

Substance | binding
EGFP-tagged wild type human prelamin A/C (lamin A) (from UniProt P02545 2-664) | binds
EGFP-tagged G602S lamin A (pEGFP-G602S-Lamin) (from UniProt P02545 2-664) | binds
EGFP-tagged FUS p.Gly167_Gly168del (from UniProt P35637 1-526) | no binding
EGFP-tagged wild type human FUS (fused in sarcoma) (from UniProt P35637 1-526) | binds

From PMC8192393
